Source: publication doi:10.1101/459149
No constants are given. Whether binding was seen depends on the method and setting. Binding seen in cells or lysates may run through a third protein. For some assays here: Binding can be weak; no strength is given. For some assays here: Tags and fused reporters may be left off the sequences shown.

B1: endogenous adenosine deaminase acting on RNA 1 (ADAR1) (protein, UniProt P55265-5 1-931)
chain: MAEIKEKICDYLFNVSDSSALNLAKNIGLTKARDINAVLIDMERQGDVYRQGTTPPIWHLTDKKRERMQIKRNTNSVPETAPAAIPETKRNAEFLTCNIPTSNASNNMVTTEKVENGQEPVIKLENRQEARPEPARLKPPVHYNGPSKAGYVDFENGQWATDDIPDDLNSIRAAPGEFRAIMEMPSFYSHGLPRCSPYKKLTECQLKNPISGLLEYAQFASQTCEFNMIEQSGPPHEPRFKFQVVINGREFPPAEAGSKKVAKQDAAMKAMTILLEEAKAKDSGKSEESSHYSTEKESEKTAESQTPTPSATSFFSGKSPVTTLLECMHKLGNSCEFRLLSKEGPAHEPKFQYCVAVGAQTFPSVSAPSKKVAKQMAAEEAMKALHGEATNSMASDNQPEGMISESLDNLESMMPNKVRKIGELVRYLNTNPVGGLLEYARSHGFAAEFKLVDQSGPPHEPKFVYQAKVGGRWFPAVCAHSKKQGKQEAADAALRVLIGENEKAERMGFTEVTPVTGASLRRTMLLLSRSPEAQPKTLPLTGSTFHDQIAMLSHRCFNTLTNSFQPSLLGRKILAAIIMKKDSEDMGVVVSLGTGNRCVKGDSLSLKGETVNDCHAEIISRRGFIRFLYSELMKYNSQTAKDSIFEPAKGGEKLQIKKTVSFHLYISTAPCGDGALFDKSCSDRAMESTESRHYPVFENPKQGKLRTKVENGEGTIPVESSDIVPTWDGIRLGERLRTMSCSDKILRWNVLGLQGALLTHFLQPIYLKSVTLGYLFSQGHLTRAICCRVTRDGSAFEDGLRHPFIVNHPKVGRVSIYDSKRQSGKTKETSVNWCLADGYDLEILDGTRGTVDGPRNELSRVSKKNIFLLFKKLCSFRYRRDLLRLSYGEAKKAARDYETAKNYFKKGLKDMGYGNWISKPQEEKNFYLCPV
B2: HA-tagged wild-type ADAR1 (p110) (protein, UniProt P55265-5 1-931)
chain: B1 chain

How the values were obtained:
Experiment in all cases: co-IP
[1] = target: FLAG-tagged C-terminus deletion OV20.0 (ΔC) (Orf virus (ORFV))
[2] = target: FLAG-tagged Kozak OV20.0 (K20), the full-length isoform only (Orf virus (ORFV))
[3] = target: FLAG-tagged OV20.0 produced during infection with recombinant ORFV (Orf virus (ORFV))
[4] = target: FLAG-tagged short form OV20.0 (sh20), N-terminally truncated isoform (Orf virus (ORFV))
[5] = target: FLAG-tagged wild-type OV20.0 (ORFV) (Orf virus (ORFV))

Row | Binder | binding [1] | binding [2] | binding [3] | binding [4] | binding [5]
1 | B1 | no binding | binds | binds | binds | 
2 | B2 |  |  |  |  | binds
